Laboratory results from patent US20210332334A1.
Results are given in words; binding and its absence hold for the method and conditions named. Some binding calls cover weakened binding; strength is not graded here.

Protein sequences, listed by entry. Tags and fused reporters are not part of them. Residues count along the entry.
UniProt P51654, residues 25-559: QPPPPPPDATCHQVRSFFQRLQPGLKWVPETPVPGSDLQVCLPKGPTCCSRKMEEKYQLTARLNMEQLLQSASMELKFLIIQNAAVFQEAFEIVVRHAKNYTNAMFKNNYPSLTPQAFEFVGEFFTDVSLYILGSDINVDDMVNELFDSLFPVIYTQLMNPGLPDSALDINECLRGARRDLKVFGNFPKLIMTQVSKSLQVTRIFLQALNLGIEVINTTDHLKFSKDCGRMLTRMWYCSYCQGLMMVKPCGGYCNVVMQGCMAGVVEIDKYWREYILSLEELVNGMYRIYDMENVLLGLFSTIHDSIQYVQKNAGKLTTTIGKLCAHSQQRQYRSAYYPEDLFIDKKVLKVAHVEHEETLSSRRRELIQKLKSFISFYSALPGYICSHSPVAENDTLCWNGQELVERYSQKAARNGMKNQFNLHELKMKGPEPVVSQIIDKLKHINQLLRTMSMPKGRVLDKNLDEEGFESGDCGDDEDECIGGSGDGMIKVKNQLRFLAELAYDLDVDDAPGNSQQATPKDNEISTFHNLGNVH

Biological target: AlexaFluor 647-conjugated GPC3 recombinant protein (UniProt P51654)
Test: magnetic isolation of CAR T cells with labelled recombinant GPC3 and anti-AlexaFluor647 microbeads

B1: GPC3-targeting CAR polypeptide (SEQ ID NO: 105), CD28 costimulatory domain (protein)
chain: DVVMTQSPLSLPVTPGEPASISCRSSQSLVHSNRNTYLHWYLQKPGQSPQLLIYKVSNRFSGVPDRFSGSGSGTDFTLKISRVEAEDVGVYYCSQNTHVPPTFGQGTKLEIKRGGGGSGGGGSGGGGSQVQLVQSGAEVKKPGASVKVSCKASGYTFTDYEMHWVRQAPGQGLEWMGALDPKTGDTAYSQKFKGRVTLTADKSTSTAYMELSSLTSEDTAVYYCTRFYSYTYWGQGTLVTVSSIEVMYPPPYLDNEKSNGTIIHVKGKHLCPSPLFPGPSKPFWVLVVVGGVLACYSLLVTVAFIIFWVRSKRSRLLHSDYMNMTPRRPGPTRKHYQPYAPPRDFAAYRSRVKFSRSADAPAYQQGQNQLYNELNLGRREEYDVLDKRRGRDPEMGGKPRRKNPQEGLYNELQKDKMAEAYSEIGMKGERRRGKGHDGLYQGLSTATKDTYDALHMQALPPR
binding: binds
